{
  "source": "the supplement of paper PMC12889115",
  "system": "Salmonella enterica serovar Typhimurium SL1344",
  "assay": "bacterial growth OD600 after 18 h with compound and polymyxin B; higher = more bacterial growth (less inhibition)",
  "settings": "50 µM, Mueller-Hinton broth",
  "note": "The other results are listed elsewhere or left out. Values are raw readings; no control value is given beside them.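 First-pass screen: polymyxin B was added at a level that permeabilizes the Salmonella outer membrane while sparing the inner membrane. DMSO wells, with and without polymyxin B, defined maximum growth. Because plates differed from one another, each plate's data were ranked separately and the compounds with the lowest OD600 were carried forward as hits.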",
  "data": [
    {"smiles": "Cc1ccccc1-c1cnc(-c2ccncc2)nc1C1CCCN(C(=O)/C=C/c2ccc(F)cc2)C1", "note": "(configuration not stated)", "values": [
      {"measurement": "bacterial growth OD600", "setting": "polymyxin B 0.75 µg/mL", "result": 0.006}
    ]},
    {"smiles": "COc1cc(C)ccc1OCc1nc(C(=O)NC(C)C2CC2)co1", "note": "(configuration not stated)", "values": [
      {"measurement": "bacterial growth OD600", "setting": "polymyxin B 1 µg/mL", "result": 0.879}
    ]},
    {"smiles": "CSc1nc(C(=O)N2CCc3c(cnc(C)c3CNC(=O)/C=C/c3ccccc3F)C2)cs1", "values": [
      {"measurement": "bacterial growth OD600", "setting": "polymyxin B 0.75 µg/mL", "result": 0.507}
    ]},
    {"smiles": "COc1cccc(-c2cc(CC3(O)CCN(CC4CCCCC4)CC3)on2)c1", "values": [
      {"measurement": "bacterial growth OD600", "setting": "polymyxin B 1 µg/mL", "result": 0.929}
    ]},
    {"smiles": "C=CCOc1ccccc1CN1CCOc2ccc(CN3CCC(O)(c4cccnc4)CC3)cc2C1", "values": [
      {"measurement": "bacterial growth OD600", "setting": "polymyxin B 0.75 µg/mL", "result": 0.739}
    ]},
    {"smiles": "CN(C)C(=O)c1ccc(N2CCC(NC3CCCc4ccccc43)CC2)cc1", "note": "(configuration not stated)", "values": [
      {"measurement": "bacterial growth OD600", "setting": "polymyxin B 0.75 µg/mL", "result": 0.827}
    ]},
    {"smiles": "Cc1nnc(SCCNC(=O)C2CCN(c3nc(C)c4cc(C(C)C)ccc4n3)CC2)s1", "values": [
      {"measurement": "bacterial growth OD600", "setting": "polymyxin B 0.75 µg/mL", "result": 0.641}
    ]},
    {"smiles": "Cc1cc(CNC(=O)CCN2CCCO2)c2[nH]c(C)c(C)c2c1", "values": [
      {"measurement": "bacterial growth OD600", "setting": "polymyxin B 1 µg/mL", "result": 0.902}
    ]},
    {"smiles": "COC(=O)CCCC(=O)N1CCCC(CCc2cccc(F)c2)C1", "note": "(configuration not stated)", "values": [
      {"measurement": "bacterial growth OD600", "setting": "polymyxin B 0.75 µg/mL", "result": 0.625}
    ]},
    {"smiles": "O=C(NCC1CCCCC1)c1cn(C2CC2)cc(C(=O)N2CCN(C3CCCC3)CC2)c1=O", "values": [
      {"measurement": "bacterial growth OD600", "setting": "polymyxin B 0.75 µg/mL", "result": 0.897}
    ]},
    {"smiles": "COCC(=O)Nc1cc(C(=O)N(C)Cc2cc(C)no2)cc2ncn(CCc3ccccc3)c12", "values": [
      {"measurement": "bacterial growth OD600", "setting": "polymyxin B 0.75 µg/mL", "result": 0.716}
    ]},
    {"smiles": "CC(C)(C)NC(=O)NCc1cccnc1Oc1ccccc1F", "values": [
      {"measurement": "bacterial growth OD600", "setting": "polymyxin B 0.75 µg/mL", "result": 0.731}
    ]},
    {"smiles": "COc1ccccc1C1CN(CCNC(=O)CCn2c(=O)[nH]c3ccccc32)Cc2ccccc2O1", "note": "(configuration not stated)", "values": [
      {"measurement": "bacterial growth OD600", "setting": "polymyxin B 0.75 µg/mL", "result": 0.942}
    ]},
    {"smiles": "CSc1ccccc1OCc1cc(C(=O)N2CCN(Cc3nccn3C)CC2)no1", "values": [
      {"measurement": "bacterial growth OD600", "setting": "polymyxin B 1 µg/mL", "result": 0.807}
    ]},
    {"smiles": "CN(Cc1cccs1)C(=O)c1cc(NC(=O)CC2CCCC2)cc2nc(C3CCCO3)n(C)c12", "note": "(configuration not stated)", "values": [
      {"measurement": "bacterial growth OD600", "setting": "polymyxin B 0.75 µg/mL", "result": 0.714}
    ]},
    {"smiles": "CCn1ccnc1CN(C)C(=O)CC(c1ccccc1)c1ccccc1Cl", "note": "(configuration not stated)", "values": [
      {"measurement": "bacterial growth OD600", "setting": "polymyxin B 1 µg/mL", "result": 0.421}
    ]},
    {"smiles": "COc1ccc(F)c(CN2CCCC3(CCN(C4CCSCC4)C3)C2=O)c1", "note": "(configuration not stated)", "values": [
      {"measurement": "bacterial growth OD600", "setting": "polymyxin B 1 µg/mL", "result": 0.829}
    ]},
    {"smiles": "Cc1oc(-c2cccc(F)c2F)nc1CN(C)Cc1ccccc1C(F)(F)F", "values": [
      {"measurement": "bacterial growth OD600", "setting": "polymyxin B 1 µg/mL", "result": 0.792}
    ]},
    {"smiles": "COCc1ccc(C(=O)N2CCCC(CCc3ccccc3)C2)o1", "note": "(configuration not stated)", "values": [
      {"measurement": "bacterial growth OD600", "setting": "polymyxin B 0.75 µg/mL", "result": -0.002}
    ]},
    {"smiles": "CC(C)c1nc2cc(C(=O)N3CCSCC3)ccc2o1", "values": [
      {"measurement": "bacterial growth OD600", "setting": "polymyxin B 1 µg/mL", "result": 0.869}
    ]},
    {"smiles": "Cc1nc(-c2ccncc2)ncc1C(C)NC(=O)c1ccsc1", "note": "(configuration not stated)", "values": [
      {"measurement": "bacterial growth OD600", "setting": "polymyxin B 1 µg/mL", "result": 0.906}
    ]},
    {"smiles": "Cc1ccc(NC2CCCN(C(=O)CCC(=O)c3ccccc3)C2)cc1C", "note": "(configuration not stated)", "values": [
      {"measurement": "bacterial growth OD600", "setting": "polymyxin B 1 µg/mL", "result": 0.716}
    ]},
    {"smiles": "O=C(Nc1ccc(-n2cccn2)cc1)C1CCCN1C(=O)CCc1cccs1", "note": "(configuration not stated)", "values": [
      {"measurement": "bacterial growth OD600", "setting": "polymyxin B 0.75 µg/mL", "result": 0.808}
    ]},
    {"smiles": "O=C(NC1Cc2ccccc2C1)c1coc(COc2cccc(F)c2)n1", "values": [
      {"measurement": "bacterial growth OD600", "setting": "polymyxin B 0.75 µg/mL", "result": 0.009}
    ]},
    {"smiles": "COc1cc(CN([C@H]2CCCCNC2=O)S(=O)(=O)c2cccc3cccnc23)cc(OC)c1OCCc1ccsc1", "values": [
      {"measurement": "bacterial growth OD600", "setting": "polymyxin B 0.75 µg/mL", "result": 0.598}
    ]},
    {"smiles": "Cc1cccc(C(=O)N2CCC3(CCCN(CC(C)(C)C)C3=O)C2)n1", "note": "(configuration not stated)", "values": [
      {"measurement": "bacterial growth OD600", "setting": "polymyxin B 1 µg/mL", "result": 0.139}
    ]},
    {"smiles": "CSc1ccccc1NC(=O)N1CCCC(CNC(=O)c2cc(C)on2)C1", "note": "(configuration not stated)", "values": [
      {"measurement": "bacterial growth OD600", "setting": "polymyxin B 0.75 µg/mL", "result": 0.958}
    ]},
    {"smiles": "COCC1CCCN(C(=O)c2coc(COc3ccccc3)n2)C1", "note": "(configuration not stated)", "values": [
      {"measurement": "bacterial growth OD600", "setting": "polymyxin B 1 µg/mL", "result": 0.983}
    ]},
    {"smiles": "CCOC(=O)C1(Cc2ccc(OC)cc2)CCN(C(=O)c2cc(C)cc(C)c2)CC1", "values": [
      {"measurement": "bacterial growth OD600", "setting": "polymyxin B 0.75 µg/mL", "result": 0.005}
    ]},
    {"smiles": "CCC(COC)NC(=O)c1cc(OC)ccc1OC1CCN(C(=O)C2CC2)CC1", "note": "(configuration not stated)", "values": [
      {"measurement": "bacterial growth OD600", "setting": "polymyxin B 1 µg/mL", "result": 0.851}
    ]},
    {"smiles": "Cc1nc(-c2ccncc2)ncc1C(C)NC(=O)c1ccc(Cl)s1", "note": "(configuration not stated)", "values": [
      {"measurement": "bacterial growth OD600", "setting": "polymyxin B 1 µg/mL", "result": 1}
    ]},
    {"smiles": "CC(NC(=O)c1ccc(OC2CCN(C(=O)C3CC3)CC2)cc1)c1cccs1", "note": "(configuration not stated)", "values": [
      {"measurement": "bacterial growth OD600", "setting": "polymyxin B 1 µg/mL", "result": 1.03}
    ]}
  ]
}
